Data from publication PMC9587005, “Phosphatidic Acid Mediates the Nem1-Spo7/Pah1 Phosphatase Cascade in Yeast Lipid Synthesis” (Journal of Lipid Research, 2022).
These are yes or no findings as the source states them, for the method shown. Binding seen in cells or lysates may run through a third protein. Some binding calls cover weakened binding; strength is not graded here. Where a sequence is shown, tags or fusion partners need not be part of it.

Biological target: T1, Protein A-tagged Nem1 (catalytic subunit of the Nem1-Spo7 protein phosphatase complex) (S. cerevisiae) (UniProt P38757)
T1 sequence: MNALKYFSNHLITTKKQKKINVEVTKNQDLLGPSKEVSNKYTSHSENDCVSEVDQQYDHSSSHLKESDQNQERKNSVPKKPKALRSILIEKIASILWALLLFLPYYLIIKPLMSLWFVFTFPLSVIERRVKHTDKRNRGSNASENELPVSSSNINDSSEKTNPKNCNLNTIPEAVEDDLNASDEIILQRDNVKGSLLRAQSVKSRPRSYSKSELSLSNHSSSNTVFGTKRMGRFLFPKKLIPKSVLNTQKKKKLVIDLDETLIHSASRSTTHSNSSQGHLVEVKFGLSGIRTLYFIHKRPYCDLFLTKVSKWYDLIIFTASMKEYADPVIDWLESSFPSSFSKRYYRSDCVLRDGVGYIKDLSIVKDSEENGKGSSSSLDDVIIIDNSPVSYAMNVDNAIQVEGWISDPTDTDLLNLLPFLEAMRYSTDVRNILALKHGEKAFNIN
Experiment: pull-down; affinity chromatography with IgG-Sepharose of protein A-tagged Nem1 from S. cerevisiae co-expressing Spo7; Nem1 and Spo7 of the purified complex later detected by Western blotting with anti-protein A and anti-Spo7 antibodies (after reconstitution into liposomes, Sephadex G-50 fractions)

binding: binds
B1: Spo7 (regulatory subunit of the Nem1-Spo7 protein phosphatase complex) (protein, UniProt P18410 1-259)
chain: MEPESIGDVGNHAQDDSASIVSGPRRRSTSKTSSAKNIRNSSNISPASMIFRNLLILEDDLRRQAHEQKILKWQFTLFLASMAGVGAFTFYELYFTSDYVKGLHRVILQFTLSFISITVVLFHISGQYRRTIVIPRRFFTSTNKGIRQFNVKLVKVQSTWDEKYTDSVRFVSRTIAYCNIYCLKKFLWLKDDNAIVKFWKSVTIQSQPRIGAVDVKLVLNPRAFSAEIREGWEIYRDEFWAREGARRRKQAHELRPKSE
